The text below walks through data of publication PMC11415432.

Protein sequences can lack the tags named with them.

The test system of the data set is T1, MBP-PgWRKY74.
T1 sequence (limits assumed): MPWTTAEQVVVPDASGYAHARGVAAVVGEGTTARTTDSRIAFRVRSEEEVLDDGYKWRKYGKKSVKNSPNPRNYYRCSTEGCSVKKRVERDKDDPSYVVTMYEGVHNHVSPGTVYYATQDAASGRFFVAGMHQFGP
The experiment in a line: EMSA. To be noted: shift attenuated by unlabeled self competitor; 4% glycerol, 60 mM KCl, 10 mM Tris-HCl pH 7.5, room temperature 20 min; 1% agarose gel in 1x TAE; recombinant protein; protein details: N-terminal MBP (pMAL-c5E); label: DIG-dUTP labeling by PCR.
As to “CCTTTTCGTAATCCACGAACCAACTAGCTTGTAGCTTCTGCATTCAGTCAATTGCTCTTTGCTCAGCGACACGGAGTCAGCGTGCAGGATGAATCTCGTCCTATAAAGCGACGTGATTGCCAGTGCTCCTAAGTCTCGGGATCAATCGAACCTGTTATTATTACTATGGCATGATGCATCTGCAGTGGATTATGGTAGATCCTTCCTTCATTCAATAAGTCACTTGTTTTAGTCTCCTTCATCCTTTCCATAGTTGCTAAATTTAGTCCATACCTATTTGGTTCAAAAGATTCATAGGGACCACAACAAATGAGAGGGCATCTCTCTCCATTTAGTCCCAATAAGCAACCCTTTGGTGACTTGTTGGCTTATGAATTGAGACTAAATTTAATCCTCATTAAGTCACCATGTTTGGCACCAAAGTGACTTAATGGAACTTAATTTAGGTTGGCTAGAATAAGTAACCCCAATCCAAGCAGGGCCTGAGCTGCTGAGCATAA (double strand) [promoter probe 2 (Supplementary Table 3, second entry)]”, the binding result is given as “binds”.

Turning to “GGCACAGGTGCTGGCGTGCCCCCGTAGTCTCGGTTCGTAATACCACCCGGGACTAAAGGAGCCTTTAGTCCCGGTTGGTTCAAGCTGGACTAGGGGGGCTTTTGTCTCTAAACTTTAGTCCTGGTTGGACTTGAGAGACCTAAACCCCTTTCCAACCGGGACTAAAGCCCCTCTCCCTACCAGTGACAGGTGGGTTCTAGTGAATGAATAAGAGGAGTAGAGGATGGAAGTAGAGTGTACGCGTGCAGTAGGATGTTCTTTTTGAGGTATATTTAGAGGACATCTAACATATGTGTTGGATATAGATTTGGGTTATTACTTATTATTACTTGTCAGGCTGTCACCAGCCACCACTGATTCTTGAAACCAAATCCATCAGATTCCCAAGAGTGCCAAAGGGAATCTCTCCTTCTGCATCCCTCTATATAGTGCCGATCGAAACACAAAGCACATTGCCCTCAGTGTCCCATACGGAAAACCGGCCCCCATCGAGCGTGGAC (double strand)”, the binding result is given as “binds”.

On to “GCACTCGCTGACTTGGTGGACCCGCAGACACGCGGACCCCGCGTGTCATAGGGGTGCCCGGGTGGAGGCGTGGTGGGGGCGCGTCGGGCGCCCATGTGGGCGGACCACGTGGGGGTCCTCTCGCTCGCCTGTAGCCGGTAGCCGGTCGCCGCGGCGGGGCATTAAGTGGCTAATCATCGCCGCTTTCTTCCTCCACCACCGCCTCCCTCCTCCTAAATTCTCGAGGTTAAATAAGCGAGCTGGAGAAAGCAGTTCGGAGCCTAGTCTAGTGAGAAAGGGAGAGGAGGGAGGAAAGGGAAAGCGGCAGGGAGCAAAGAAGAAAGGTCAAGGCATCTGGGGTGCTTCTTCTTCTTCTCCTTCTTTCCGGAGATTCTTGGGACGAGGCGCCGCGGAAGGGAATTTCTCTGGCCTCCGCCGCCACAGCTTCC (double strand)”, for which the binding result is reported as “binds”.

Take “CAGAGCGGATCTGAGGGCATTTCGCAGCATTCAGGAGCGCTTTTGGGGATTTCTCAGCGCATCCTGTAGCATTTCTCAACGATTCGGTGAGCATTTCGTGCCTTTCTTTTCCCGGTCCCGTGGGTAATTACGTGTTGTTAAGTTACTCGTCGTTGAGGGTTTAATGTCCACTCTGTTGTGATTCAGGCTCGTCAAGTTCTTGATCGTTGGTTAAACATGTTTTCGAGTTCTAATTCCATGTTTAGAGAGGGATTAGGATTGTTTTGCAACCCTTCCAGATTGTTGTACATCTGAAAGTTCTCGCAGCTTTGTGGAAAAAGAATGGGCCTTTATTTCTCTGGGGAATGAATTCCTGTGGCATCTGATGCTCTAGGACCATAAAGAGCTCACTAAAGCTTGTAACTTTACTGCTGTCCTACCTCACTAAACTGCCCTATGGAATAATTCCTCAAGCTGTTTTCCTTTTCGTCATCTTTGGCGAAATAGGGGAAGAGCCTCTC (double strand)”: the binding result is reported as “binds”.
